{"source": "PubChem BioAssay AID1671195 (Yale University, 2021)", "purpose": "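Genes whose knockdown alters LDL uptake in liver cancer cells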 (primary screen)", "cells": "human Huh7 hepatoma cells", "knock-down reagent": "siRNA pool against human genes, 18 nM", "timing": "about 2 to 2.5 days of knockdown, then 8 h LDL uptake", "treatment": "DiI-labelled LDL at 30 µg/ml for 8 h, in lipoprotein-deficient serum medium", "detection": "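Fluorescent LDL signal imaged in cells, scaled to the plate median, robust z-score for each replicate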", "direction": "robust z-score: higher = more LDL uptake after knockdown", "hit rule": "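Active when two or more replicates show a robust z-score above 2 or below -2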", "note": "In all, the deposit lists about 22,000 reagents; below is a random part of them. Over the whole deposit, about 1,510 (6.9%) were called active. 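Active includes knockdowns raising or lowering LDL uptake; positive z-scores mean more uptake, negative mean less.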 Entries without a mark were called inactive. Reagent sequences are not shown."}
{"target gene": "PDCL3P4 (PDCL3 pseudogene 4)", "robust z-score, replicate 1": -1.5, "robust z-score, replicate 2": -1.54, "robust z-score, replicate 3": -1.48}
{"target gene": "NECTIN3 (nectin cell adhesion molecule 3)", "robust z-score, replicate 1": -0.205, "robust z-score, replicate 2": 0.269, "robust z-score, replicate 3": -0.397}
{"target gene": "MRPL10 (mitochondrial ribosomal protein L10)", "robust z-score, replicate 1": -1.84, "robust z-score, replicate 2": -1.56, "robust z-score, replicate 3": -1.98}
{"target gene": "PON1 (paraoxonase 1)", "robust z-score, replicate 1": 1.01, "robust z-score, replicate 2": -0.132, "robust z-score, replicate 3": 1.32}
{"target gene": "SHBG (sex hormone binding globulin)", "robust z-score, replicate 1": -0.595, "robust z-score, replicate 2": 0.295, "robust z-score, replicate 3": 0.519}
{"target gene": "ACSM5 (acyl-CoA synthetase medium chain family member 5)", "robust z-score, replicate 1": 1.55, "robust z-score, replicate 2": 1.67, "robust z-score, replicate 3": 1.1}
{"target gene": "DDX59 (DEAD-box helicase 59)", "robust z-score, replicate 1": -1.11, "robust z-score, replicate 2": -0.952, "robust z-score, replicate 3": -0.652}
{"target gene": "SLC26A1", "robust z-score, replicate 1": 0.657, "robust z-score, replicate 2": 0.481, "robust z-score, replicate 3": 0.791}
{"target gene": "ARAP2 (ArfGAP with RhoGAP domain, ankyrin repeat and PH domain 2)", "robust z-score, replicate 1": 1.47, "robust z-score, replicate 2": 1.32, "robust z-score, replicate 3": 1.22}
{"target gene": "LINC03103 (long independently transcribed non-coding RNA 3103)", "robust z-score, replicate 1": -0.909, "robust z-score, replicate 2": -1.06, "robust z-score, replicate 3": -0.801}
{"target gene": "ZNF570 (zinc finger protein 570)", "robust z-score, replicate 1": "-2.17 (active)", "robust z-score, replicate 2": -2.23, "robust z-score, replicate 3": -2.37}
{"target gene": "R3HDM4 (R3H domain containing 4)", "robust z-score, replicate 1": -1.51, "robust z-score, replicate 2": -1.7, "robust z-score, replicate 3": -0.778}
{"target gene": "UQCC5 (ubiquinol-cytochrome c reductase complex assembly factor 5)", "robust z-score, replicate 1": -0.213, "robust z-score, replicate 2": -0.433, "robust z-score, replicate 3": -0.579}
{"target gene": "ZNF618 (zinc finger protein 618)", "robust z-score, replicate 1": -0.705, "robust z-score, replicate 2": -1, "robust z-score, replicate 3": -1.01}
{"target gene": "SPATA31D1 (SPATA31 subfamily D member 1)", "robust z-score, replicate 1": 0.129, "robust z-score, replicate 2": 0.429, "robust z-score, replicate 3": 0.533}
{"target gene": "KRT84 (keratin 84)", "robust z-score, replicate 1": 0.972, "robust z-score, replicate 2": -0.323, "robust z-score, replicate 3": 0.333}
{"target gene": "NKX2-1 (NK2 homeobox 1)", "robust z-score, replicate 1": -1.14, "robust z-score, replicate 2": -0.378, "robust z-score, replicate 3": -0.867}
{"target gene": "HAPLN4 (hyaluronan and proteoglycan link protein 4)", "robust z-score, replicate 1": "-2.1 (active)", "robust z-score, replicate 2": -1.62, "robust z-score, replicate 3": -2.07}
{"target gene": "DOLPP1 (dolichyldiphosphatase 1)", "robust z-score, replicate 1": 0.235, "robust z-score, replicate 2": 0.0386, "robust z-score, replicate 3": 0.345}
{"target gene": "LOC441040 (retired record)", "robust z-score, replicate 1": 0.0176, "robust z-score, replicate 2": 0.0202, "robust z-score, replicate 3": -0.145}
{"target gene": "MBTD1 (mbt domain containing 1)", "robust z-score, replicate 1": 1.45, "robust z-score, replicate 2": 1.54, "robust z-score, replicate 3": 3.32}
{"target gene": "SPTSSB (serine palmitoyltransferase small subunit B)", "robust z-score, replicate 1": -0.388, "robust z-score, replicate 2": 0.34, "robust z-score, replicate 3": 0.582}
{"target gene": "RTL9 (retrotransposon Gag like 9)", "robust z-score, replicate 1": -0.574, "robust z-score, replicate 2": 0.131, "robust z-score, replicate 3": 0.819}
{"target gene": "MRPL9 (mitochondrial ribosomal protein L9)", "robust z-score, replicate 1": 0.619, "robust z-score, replicate 2": 0.197, "robust z-score, replicate 3": -0.0779}

Quoted from the entries so far, 2 entries:
{"target gene": "SLC26A1", "robust z-score, replicate 1": 0.657, "robust z-score, replicate 2": 0.481, "robust z-score, replicate 3": 0.791}
{"target gene": "ARAP2 (ArfGAP with RhoGAP domain, ankyrin repeat and PH domain 2)", "robust z-score, replicate 1": 1.47, "robust z-score, replicate 2": 1.32, "robust z-score, replicate 3": 1.22}
